Paper PMC12667515
No constants are given. Whether binding was seen depends on the method and setting. In cells and extracts the contact can be indirect.

By UniProt entry, the sequences of proteins in these tests, tags left out.
UniProt P04867: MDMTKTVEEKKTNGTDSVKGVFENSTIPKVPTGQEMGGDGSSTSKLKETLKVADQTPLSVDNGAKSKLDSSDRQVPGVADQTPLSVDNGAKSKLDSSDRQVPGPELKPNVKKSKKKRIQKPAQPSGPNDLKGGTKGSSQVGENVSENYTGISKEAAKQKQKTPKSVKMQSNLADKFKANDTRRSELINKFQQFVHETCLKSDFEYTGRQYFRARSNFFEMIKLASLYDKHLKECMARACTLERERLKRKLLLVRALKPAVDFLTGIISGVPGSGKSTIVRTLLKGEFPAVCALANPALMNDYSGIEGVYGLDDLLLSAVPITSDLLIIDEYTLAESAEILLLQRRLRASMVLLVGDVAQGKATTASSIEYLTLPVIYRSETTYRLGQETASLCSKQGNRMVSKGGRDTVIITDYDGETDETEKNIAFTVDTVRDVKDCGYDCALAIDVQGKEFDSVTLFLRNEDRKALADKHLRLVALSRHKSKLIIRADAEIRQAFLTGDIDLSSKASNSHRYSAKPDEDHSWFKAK
UniProt P05804: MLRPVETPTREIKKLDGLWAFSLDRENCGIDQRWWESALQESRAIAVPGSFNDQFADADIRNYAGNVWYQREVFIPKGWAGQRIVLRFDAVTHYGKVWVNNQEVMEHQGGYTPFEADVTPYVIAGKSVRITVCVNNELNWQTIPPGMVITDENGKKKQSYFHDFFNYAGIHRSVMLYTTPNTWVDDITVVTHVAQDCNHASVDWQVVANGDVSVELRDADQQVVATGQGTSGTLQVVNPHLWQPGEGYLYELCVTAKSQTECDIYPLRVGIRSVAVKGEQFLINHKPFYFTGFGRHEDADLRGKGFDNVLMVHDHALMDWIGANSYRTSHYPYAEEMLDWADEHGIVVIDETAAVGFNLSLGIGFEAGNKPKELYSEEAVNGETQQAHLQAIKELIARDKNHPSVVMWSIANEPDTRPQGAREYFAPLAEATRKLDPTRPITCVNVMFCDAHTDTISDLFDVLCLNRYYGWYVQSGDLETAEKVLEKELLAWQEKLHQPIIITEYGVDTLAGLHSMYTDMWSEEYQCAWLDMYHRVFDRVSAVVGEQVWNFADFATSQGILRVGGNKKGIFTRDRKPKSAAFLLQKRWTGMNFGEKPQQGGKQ

Molecular target: cLuc–TGB1 (BSMV TGB1) (barley stripe mosaic virus) (UniProt P04867)
Assay: split reporter; firefly luciferase complementation imaging (LCI, split-LUC); nLuc and cLuc fusions co-infiltrated into N. benthamiana leaves, 48 hpi, 1 mmol/L luciferin

## GUS–nLuc (from UniProt P05804 1-603) (enzyme)
  binding: no binding
